Test results from paper PMC8764521.

Columns and labels:
Assay in all cases: co-IP; A549 cells coexpressing HA-NS2 and Flag-BH3, Flag-CCD, Flag-ECD or Flag-RIG-I-C; IP with anti-Flag antibody, immunoblot with anti-HA
[1] = target: Flag-tagged coiled-coil domain (CCD) of Beclin1 (human)
[2] = target: Flag-tagged C-terminal domain of RIG-I protein
[3] = target: Flag-tagged BH3 domain of Beclin1 (human)
[4] = target: Flag-tagged evolutionary conserved domain (ECD) of Beclin1 (human)

B1: HA-tagged RSV NS2 protein (protein, UniProt P04543 1-124)
chain: MDTTHNDNTPQRLMITDMRPLSLETIITSLTRDIITHKFIYLINHECIVRKLDERQATFTFLVNYEMKLLHKVGSTKYKKYTEYNTKYGTFPMPIFINHDGFLECIGIKPTKHTPIIYKYDLNP
binding [1]: binds
binding [2]: no binding
binding [3]: binds
binding [4]: binds

Results are given in words; binding and its absence hold for the method and conditions named. Binding seen in cells or lysates may run through a third protein. For some of these results: Binding calls can cover weak binding; strength is not graded here. Sequences can lack the tags named with a protein.
